Reference: article PMC11033462
These are yes or no findings as the source states them, for the method shown. In cells and extracts the contact can be indirect. Some binding calls cover weakened binding; strength is not graded here. Sequences can lack the tags named with a protein.

Legend:
Test in all cases: co-IP; Myc-PLAA overexpressed in HEK293T, captured from cleared lysate on Myc-beads (4°C, 2 h), eluate probed by western blot (anti-VCP, anti-SAKS1, anti-MYC); p97 band divided by the Myc-PLAA band
[1] = biological target: Phospholipase-A2-Activating-Protein (PLAA), wild type, Myc-tagged (human) (UniProt Q9Y263)
[2] = biological target: PLAA p.Ile609Thr, Myc-tagged (human) (UniProt Q9Y263)
[3] = biological target: PLAA p.Leu795Met, Myc-tagged (human) (UniProt Q9Y263)

Measured: binding

B1: UBXN1 (protein, UniProt Q04323 1-297)
chain: MAELTALESLIEMGFPRGRAEKALALTGNQGIEAAMDWLMEHEDDPDVDEPLETPLGHILGREPTSSEQGGLEGSGSAAGEGKPALSEEERQEQTKRMLELVAQKQREREEREEREALERERQRRRQGQELSAARQRLQEDEMRRAAEERRREKAEELAARQRVREKIERDKAERAKKYGGSVGSQPPPVAPEPGPVPSSPSQEPPTKREYDQCRIQVRLPDGTSLTQTFRAREQLAAVRLYVELHRGEELGGGQDPVQLLSGFPRRAFSEADMERPLQELGLVPSAVLIVAKKCPS
binds: [1] | [2] | [3]
